Measured values: article PMC9666630
No constants are given. Whether binding was seen depends on the method and setting. Binding seen in cells or lysates may run through a third protein. Here binding means that the protein was enriched with, or labelled near, the bait; the list need not be complete. No binding means not detected with the bait. Sequences can lack the tags named with a protein.

Legend:
Test in all cases: affinity purification with mass spectrometry; IP-MS from about 20 g young inflorescence tissue of asf1a + ASF1A-3xFlag and asf1b + ASF1B-9Myc lines, Col-0 as negative control; anti-FLAG M2 magnetic beads or streptavidin beads; interactors: fold change >2 and FDR < 0.01
[1] = target: T1, ASF1B-9xMyc-BLRP (pASF1B::ASF1B-9xMyc-BLRP complementing line) (Arabidopsis thaliana) (UniProt Q9LS09)
T1 sequence: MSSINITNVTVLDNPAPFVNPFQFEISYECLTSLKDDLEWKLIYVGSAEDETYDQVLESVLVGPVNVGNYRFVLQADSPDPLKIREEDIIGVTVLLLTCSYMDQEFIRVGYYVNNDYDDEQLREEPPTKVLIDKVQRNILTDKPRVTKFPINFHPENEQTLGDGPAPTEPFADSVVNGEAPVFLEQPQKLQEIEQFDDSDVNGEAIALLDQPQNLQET

[2] = target: T2, ASF1A-3xFlag-BLRP (pASF1A::ASF1A-3xFlag-BLRP complementing line) (Arabidopsis thaliana) (UniProt Q9C9M6)
T2 sequence: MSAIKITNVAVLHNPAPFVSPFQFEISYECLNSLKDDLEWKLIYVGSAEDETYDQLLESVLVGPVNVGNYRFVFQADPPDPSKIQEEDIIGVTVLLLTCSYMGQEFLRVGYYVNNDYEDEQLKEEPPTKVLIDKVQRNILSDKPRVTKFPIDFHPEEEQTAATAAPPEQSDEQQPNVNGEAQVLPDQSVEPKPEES

[3] = target: T3, ASF1A-3xFlag-BLRP (pASF1A::ASF1A-3xFlag-BLRP complementing line) (Arabidopsis thaliana), Q9C9M6; conditions: remark: other sources report otherwise
T3 chain: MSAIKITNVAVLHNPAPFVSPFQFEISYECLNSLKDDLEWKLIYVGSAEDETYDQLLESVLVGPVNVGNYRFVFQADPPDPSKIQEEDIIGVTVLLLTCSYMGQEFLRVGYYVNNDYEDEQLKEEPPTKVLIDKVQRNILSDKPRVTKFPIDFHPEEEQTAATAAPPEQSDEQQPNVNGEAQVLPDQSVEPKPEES

B1: HIRA (histone regulator A), endogenous (protein, UniProt Q9LXN4 1-1024)
chain: MIAEKPFWVKHEGLQIFSIDVQPNGERFATGGGDHKVRIWNMKSVDKDLQNIDTKERLLATLRDHFGSVNCVRWAKNSRYVASGSDDQVIQIHERKPGSGTTEFGSGEAPDVENWKAVMTLRGHTADVVDLNWSPDDSMLASGSLDNTVHIWNMRTGMCTTVLRGHLSLVKGVTWDPIGSFIASQSDDKTVIIWRTSDWGMAHRTDGHWAKSLGSTFFRRLGWSPCGHFLTTTHGFQKPKHSAPVLERGEWSVAYDFLGHSAPIIVVRFNHSMFKRIPSSTHETKQVGWSNGTSKSGEKDLQSYNVIAMGSQDRTITVWTTGSARPLFVAKHFFGQSVVDLSWSPDGYSLFACSLDGTVAMIHFDPKELGVRLTDTELDELKKSRYGDVRGRQANLVESPAQLLLETASTKQAGSKRAASDVQQNQVTTKPSVSVESTAKRRKSQVDDRNKAAESTGQTLNKASTLNRVSSPVNQKVYRRPDGRKRIIPEAVGVPQQENNIMINGESHNFLPASAAAPAKGDSGDFPVEISNRDLSGKEIVCRNPDLKERSRITARATITESLVIEKVPGTSGRDGVLNVEQSVGIKESSSTDLLIRVFDWKDGEAAPPVCLEACPREHALDTVGAVSTSMVKETEISCKKSGETLWSDRIMGRVTVLAGNPNFWAAGCEDGSLQVYTKCGRRAMPTMMMGSAATFIDCDDSWKLLLVTRKGSLYVWDLFNRKCVLHDSLSSLVSSDVNLSSTVKGTIKVISVKLSKSGSPLVVLATRHAFLFDTSLMCWLRVADDCFPASNFSSSWNLGSAPCGELAGLQVDVRKYMARKPGWNRITDDGTQTRAHLESQLASSLALESPNEYRQCLLAYVRFLAREADESRLREVCESFLGPPTGMAEAASSDTNLSWDPYVLGVKKHKLLRNDILPAMASNRKVQRLLNEFIDLLSEYEDVETADPAPKGSTPTMNCGGVPSSLDQIGSDPPAMTATTPMTIDNDKPVSLENPAALDIGVCEKTGSEDRDKQDQNSRDSGS
Question: How did the binding [1] turn out when B1 was run?
Answer: Its binding is “binds”.

Question: And the binding [2]?
Answer: Its binding is “binds”.

B2: FASCIATA1 (FAS1), endogenous, Q9SXY0 1-815 (protein)
chain: MDEVSTVNENENRKTMIEPKKLNKRKREPTAIENLTSEEKESQISSLNLEMKGLFDYFREVMDKSKRTDLFSGFSECSSLNSMVALLMEEMSLPLSKLVDEIYLKLKEKTESVTMVAVKSAVVSVGQRVSYGVLNVDADVLEDDSESCLWCWETRDLKIMPSSVRGVLKLRRTCRKKIHERITAVSAMLAALQREETEKLWRSDLSKAAEKLGKILSEVDIRSFMDNMMQKNSSEMAEKDSKREEKLLLKQLEKNRCEAEKEKKRMERQVLKEKLQQEKEQKLLQKAIVDENNKEKEETESRKRIKKQQDESEKEQKRREKEQAELKKQLQVQKQASIMERFLKKSKDSSLTQPKLPSSEVTAQELSCTKHENEIGKVVQAIDNAFSTTCEATVDDIRREHFASWRQLGHLLSSSKKHWGMRRQPKSELFPKLKLSTNSGVTSDGEPNMEKQGDGCEENNFDGRQCKPSSSNRKKSRRVKQLLQFDKSCRPGFYGIWPSQSQVVKPRRPLQKDPELDYEVDSDEEWEEEEAGESLSDCEKDEDESLEEGCSKADDEDDSEDDFMVPDGYLSEDEGVQVDRMDIDPSEQDANTTSSKQDQESPEFCALLQQQKHLQNLTDHALKKTQPLIICNLTHEKVSLLAAKDLEGTQKVEQICLRALMVRQFPWSSLIEISINDIQDEDQEASKFSCSQSTPPSNSKAKIIPDSDLLTVVSTIQSCSQGINRVVETLQQKFPDVPKTKLRQKVREISDFEDSRWQVKKEVLTKLGLSPSPDKGGKRLPKTISTFFSKRCLPPSTKPQPAVEDAAERLENENA
Question: With B2 as the binder, how does the binding [3] read?
Answer: Its binding is “no binding”.

B3: FASCIATA2 (FAS2), endogenous (protein, UniProt Q9SXY1 1-487)
chain: MKGGTIQISWHDGKPVLTVDFHPISGLLATAGADYDIKLWLINSGQAEKKVPSVSYQSSLTYHGCAVNTIRFSPSGELLASGADGGELFIWKLHPSETNQSWKVHKSLSFHRKDVLDLQWSPDDAYLISGSVDNSCIIWDVNKGSVHQILDAHCHYVQGVAWDPLAKYVASLSSDRTCRIYANKPQTKSKGVEKMNYVCQHVIMKADQQRGDETKTIKTHLFHDETLPSFFRRLSWSPDGSFLLIPAGSFKVSPTSEAVNATYVFSRKDLSRPALQLPGASKPVVVVRFCPVAFKLRGSSSEEGFFKLPYRLVFAIATLNSVYIYDTECVAPIAVLAGLHYAAITDITWSPNASYLALSSQDGYCTLVEFEDKELGEAVSISVGKKPVDGEEKKHDLEKGDELMTETTPDESKKQAELEQNEESKQPLPSKITTDGKEKEHIMQKTDDEVMTETRHEEENQPLQSKVNTPVSNKPARKRITPMAIDP
Question: How did the binding [1] turn out when B3 was run?
Answer: Its binding is “no binding”.

Question: And the binding [2]?
Answer: The binding was “no binding”.
